Experimental data: PubChem BioAssay AID1224828 (NIAID, 2016)
The deposit covers about 17,000 reagents; this is a part drawn at random. Over the whole deposit, 762 (4.5%) got an active call. 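Active calls include both raised and lowered p65 entry, mostly lowered; wells with fewer than 50 cells lack a z-score.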 The raw values are shown without normalisation. Entries without a mark were called inactive. No sequences are given here.

Aim: 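Knock-downs that increase or decrease LPS-induced p65 nuclear translocation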 (primary screen)
Cells: mouse RAW264.7 G9 macrophage reporter cells (GFP-p65, Tnf promoter-mCherry)
Reagents: siRNA pool against mouse genes, 100 nM
Timing: 2 days siRNA transfection, then 40 min LPS before fixation
Conditions: LPS (Salmonella minnesota R595) at 10 ng/ml
Read-out: 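Microscopy ratio of nuclear to perinuclear-ring GFP-p65 signal, scaled to the plate median; gene score is the average of two replicate robust z-scores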
Direction: p65 translocation robust z-score: higher = more nuclear NF-kappaB p65 after LPS than the plate median; nuclear/cytoplasmic p65 ratio: higher = more nuclear NF-kappaB p65
Active means: 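Called active when z exceeds 3.3 or falls under -1.56 (median of Tlr4 controls), giving activity score of at least 50; no calls for control wells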
Calls: active = hit (p65 shift raised or lowered); inactive = no clear change

Rbbp6 (retinoblastoma binding protein 6, ubiquitin ligase): p65 translocation robust z-score = 0.8; nuclear/cytoplasmic p65 ratio, rep 1 = 1.72; nuclear/cytoplasmic p65 ratio, rep 2 = 1.75; low cell count flag = enough cells to score
Tbata (thymus, brain and testes associated): p65 translocation robust z-score = -1.72 (active); nuclear/cytoplasmic p65 ratio, rep 1 = 1.29; nuclear/cytoplasmic p65 ratio, rep 2 = 1.2; low cell count flag = enough cells to score
Ptprn2 (protein tyrosine phosphatase receptor type N polypeptide 2): p65 translocation robust z-score = 0.61; nuclear/cytoplasmic p65 ratio, rep 1 = 1.57; nuclear/cytoplasmic p65 ratio, rep 2 = 1.63; low cell count flag = enough cells to score
Tfap2d (transcription factor AP-2, delta): p65 translocation robust z-score = 0.89; nuclear/cytoplasmic p65 ratio, rep 1 = 1.63; nuclear/cytoplasmic p65 ratio, rep 2 = 1.66; low cell count flag = enough cells to score
Zfyve27 (zinc finger, FYVE domain containing 27): p65 translocation robust z-score = 1.54; nuclear/cytoplasmic p65 ratio, rep 1 = 1.58; nuclear/cytoplasmic p65 ratio, rep 2 = 1.46; low cell count flag = enough cells to score
Acadsb (acyl-Coenzyme A dehydrogenase, short/branched chain): p65 translocation robust z-score = 0.36; nuclear/cytoplasmic p65 ratio, rep 1 = 1.75; nuclear/cytoplasmic p65 ratio, rep 2 = 1.6; low cell count flag = enough cells to score
Or8h10 (olfactory receptor family 8 subfamily H member 10): p65 translocation robust z-score = 0; nuclear/cytoplasmic p65 ratio, rep 1 = 1.74; nuclear/cytoplasmic p65 ratio, rep 2 = 1.51; low cell count flag = enough cells to score
Aar2 (AAR2 splicing factor homolog): p65 translocation robust z-score = 0.12; nuclear/cytoplasmic p65 ratio, rep 1 = 1.48; nuclear/cytoplasmic p65 ratio, rep 2 = 1.54; low cell count flag = enough cells to score
Ms4a5 (membrane-spanning 4-domains, subfamily A, member 5): p65 translocation robust z-score = 1.81; nuclear/cytoplasmic p65 ratio, rep 1 = 2.09; nuclear/cytoplasmic p65 ratio, rep 2 = 1.85; low cell count flag = enough cells to score

Records above called active (1):
Tbata (thymus, brain and testes associated): p65 translocation robust z-score = -1.72 (active); nuclear/cytoplasmic p65 ratio, rep 1 = 1.29; nuclear/cytoplasmic p65 ratio, rep 2 = 1.2; low cell count flag = enough cells to score

The results go on.
Slc39a11: p65 translocation robust z-score = 0.35; nuclear/cytoplasmic p65 ratio, rep 1 = 1.42; nuclear/cytoplasmic p65 ratio, rep 2 = 1.32; low cell count flag = enough cells to score
Fasl (Fas ligand): p65 translocation robust z-score = -1.77 (active); nuclear/cytoplasmic p65 ratio, rep 1 = 1.29; nuclear/cytoplasmic p65 ratio, rep 2 = 1.25; low cell count flag = enough cells to score
Or7g18 (olfactory receptor family 7 subfamily G member 18): p65 translocation robust z-score = 0.3; nuclear/cytoplasmic p65 ratio, rep 1 = 1.44; nuclear/cytoplasmic p65 ratio, rep 2 = 1.34; low cell count flag = enough cells to score
Fastkd3 (FAST kinase domains 3): nuclear/cytoplasmic p65 ratio, rep 1 = 1.65; nuclear/cytoplasmic p65 ratio, rep 2 = 1.72; low cell count flag = fewer than 50 cells per well; well left out of scoring
Fam20a (FAM20A, golgi associated secretory pathway pseudokinase): p65 translocation robust z-score = 0.18; nuclear/cytoplasmic p65 ratio, rep 1 = 1.66; nuclear/cytoplasmic p65 ratio, rep 2 = 1.82; low cell count flag = enough cells to score
